Source: patent publication US20170285043A1
No constants are given. Whether binding was seen depends on the method and setting. Binding seen in cells or lysates may run through a third protein. Some entries that bind do so weakly or less than the wild type.

Chains of the proteins cited; added tags and fusions are not shown. Lines headed by an entry give the natural chain unless they say otherwise; changes in a name come on top.
UniProt Q9NXC5: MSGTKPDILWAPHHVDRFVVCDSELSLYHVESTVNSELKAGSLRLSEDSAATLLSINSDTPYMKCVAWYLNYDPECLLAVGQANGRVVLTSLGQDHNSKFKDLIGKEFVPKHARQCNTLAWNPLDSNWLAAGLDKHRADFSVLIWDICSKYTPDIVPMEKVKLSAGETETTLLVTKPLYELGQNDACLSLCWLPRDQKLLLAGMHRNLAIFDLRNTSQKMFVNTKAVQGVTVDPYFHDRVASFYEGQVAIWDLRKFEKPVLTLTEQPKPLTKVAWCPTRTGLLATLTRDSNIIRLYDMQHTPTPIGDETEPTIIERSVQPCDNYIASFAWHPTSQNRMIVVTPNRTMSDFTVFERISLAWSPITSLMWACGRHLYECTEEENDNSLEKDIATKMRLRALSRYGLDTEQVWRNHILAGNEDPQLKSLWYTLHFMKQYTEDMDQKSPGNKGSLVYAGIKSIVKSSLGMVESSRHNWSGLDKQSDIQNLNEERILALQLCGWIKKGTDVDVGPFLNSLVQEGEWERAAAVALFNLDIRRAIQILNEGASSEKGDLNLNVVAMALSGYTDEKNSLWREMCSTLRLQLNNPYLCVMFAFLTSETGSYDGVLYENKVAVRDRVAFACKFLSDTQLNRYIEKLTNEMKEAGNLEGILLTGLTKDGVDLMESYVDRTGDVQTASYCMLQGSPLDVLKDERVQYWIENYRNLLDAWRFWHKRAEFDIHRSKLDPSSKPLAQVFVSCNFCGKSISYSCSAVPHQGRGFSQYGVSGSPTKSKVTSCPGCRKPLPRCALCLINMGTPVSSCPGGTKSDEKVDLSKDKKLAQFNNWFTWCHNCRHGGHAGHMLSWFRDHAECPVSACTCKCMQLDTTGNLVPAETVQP
UniProt O75140: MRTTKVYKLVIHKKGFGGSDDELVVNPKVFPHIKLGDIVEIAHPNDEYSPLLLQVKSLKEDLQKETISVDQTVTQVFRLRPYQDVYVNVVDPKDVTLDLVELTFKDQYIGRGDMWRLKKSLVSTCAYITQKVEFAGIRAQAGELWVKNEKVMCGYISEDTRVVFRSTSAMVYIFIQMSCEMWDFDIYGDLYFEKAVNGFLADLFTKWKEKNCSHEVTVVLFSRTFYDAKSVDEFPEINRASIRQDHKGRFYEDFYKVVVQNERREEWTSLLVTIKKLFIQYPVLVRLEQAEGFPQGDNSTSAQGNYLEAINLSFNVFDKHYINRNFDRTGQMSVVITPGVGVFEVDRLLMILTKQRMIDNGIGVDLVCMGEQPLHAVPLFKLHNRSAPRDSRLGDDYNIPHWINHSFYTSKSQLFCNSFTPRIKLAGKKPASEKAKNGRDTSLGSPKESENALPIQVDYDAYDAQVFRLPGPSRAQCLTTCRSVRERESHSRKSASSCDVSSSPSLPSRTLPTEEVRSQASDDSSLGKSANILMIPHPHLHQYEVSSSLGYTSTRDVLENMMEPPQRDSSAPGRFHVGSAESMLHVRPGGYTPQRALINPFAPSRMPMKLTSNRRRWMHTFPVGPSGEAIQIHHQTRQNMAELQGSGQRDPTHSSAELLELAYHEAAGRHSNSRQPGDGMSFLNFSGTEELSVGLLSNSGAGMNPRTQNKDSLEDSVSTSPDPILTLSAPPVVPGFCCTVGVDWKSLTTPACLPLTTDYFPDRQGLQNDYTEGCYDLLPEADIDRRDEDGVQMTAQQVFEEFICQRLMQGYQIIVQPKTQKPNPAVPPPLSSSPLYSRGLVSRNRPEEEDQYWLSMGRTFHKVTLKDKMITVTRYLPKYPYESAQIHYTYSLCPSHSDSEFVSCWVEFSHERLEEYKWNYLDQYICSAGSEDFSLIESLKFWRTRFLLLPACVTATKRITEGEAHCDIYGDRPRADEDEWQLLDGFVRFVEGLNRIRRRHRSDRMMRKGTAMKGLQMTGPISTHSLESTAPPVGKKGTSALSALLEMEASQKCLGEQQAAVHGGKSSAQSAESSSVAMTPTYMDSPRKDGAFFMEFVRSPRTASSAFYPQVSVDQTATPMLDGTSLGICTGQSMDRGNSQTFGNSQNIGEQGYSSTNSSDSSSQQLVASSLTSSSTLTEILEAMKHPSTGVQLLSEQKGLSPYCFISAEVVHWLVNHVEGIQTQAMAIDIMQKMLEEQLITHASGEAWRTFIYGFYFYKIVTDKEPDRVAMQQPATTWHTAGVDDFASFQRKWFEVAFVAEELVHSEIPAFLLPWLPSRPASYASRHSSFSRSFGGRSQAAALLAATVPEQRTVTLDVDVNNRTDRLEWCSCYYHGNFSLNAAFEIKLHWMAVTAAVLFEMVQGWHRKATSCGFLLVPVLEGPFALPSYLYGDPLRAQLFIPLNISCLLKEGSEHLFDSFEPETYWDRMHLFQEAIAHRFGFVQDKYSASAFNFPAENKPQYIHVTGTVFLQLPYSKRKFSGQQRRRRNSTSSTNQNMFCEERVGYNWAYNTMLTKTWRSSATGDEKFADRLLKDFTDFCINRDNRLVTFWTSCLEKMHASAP

Target: GATOR2, recombinant, transiently co-expressed (HA-Mios, HA-WDR59, HA-WDR24, HA-Sec13, HA-Seh1L) (Homo sapiens (Human)) (UniProt Q9NXC5)
Experiment: co-immunoprecipitation from HEK-293T with increasing amounts of FLAG-Sestrin2, immunoblot (FIG. 5B)

binding: binds
Substance: GATOR1, recombinant (HA-Depdc5, HA-Npr13, HA-Npr12) (from UniProt O75140 1-1603; Q8WTW4 1-380; Q12980 1-569)
